Assay results taken from paper PMC13172542.
These are yes or no findings as the source states them, for the method shown. In cells and extracts the contact can be indirect. A yes stands for co-enrichment or nearness to the bait. Other partners may have been found. For some of these results: No binding means not detected with the bait. For some of these results: Sequences can lack the tags named with a protein.

T1: NtMatK-HA (Nicotiana tabacum) (UniProt P12176)
T1 sequence: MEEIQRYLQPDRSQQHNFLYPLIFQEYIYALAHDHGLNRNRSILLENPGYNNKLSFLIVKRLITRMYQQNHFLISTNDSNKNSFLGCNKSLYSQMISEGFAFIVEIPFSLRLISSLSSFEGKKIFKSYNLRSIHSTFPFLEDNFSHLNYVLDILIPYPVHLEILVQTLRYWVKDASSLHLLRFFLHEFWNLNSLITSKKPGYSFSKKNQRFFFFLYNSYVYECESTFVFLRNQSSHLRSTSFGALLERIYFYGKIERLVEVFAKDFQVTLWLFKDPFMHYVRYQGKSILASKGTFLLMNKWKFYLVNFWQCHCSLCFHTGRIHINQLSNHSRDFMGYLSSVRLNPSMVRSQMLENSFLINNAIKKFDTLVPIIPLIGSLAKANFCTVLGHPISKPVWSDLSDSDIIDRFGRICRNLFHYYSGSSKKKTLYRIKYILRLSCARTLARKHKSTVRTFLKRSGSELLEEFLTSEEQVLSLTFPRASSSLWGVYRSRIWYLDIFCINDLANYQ


Biological target: T1, NtMatK-HA (Nicotiana tabacum)
Experiment: affinity purification with mass spectrometry; anti-HA IP from 10-day-old NtMatK C+ tobacco seedlings, NtMatK C- as control, without RNase treatment; on-bead digest

Molecule | binding
chaperonin-60 α (tobacco, plastidial) | binds weakly
NtEMB3120 | binds
NtRNC1 | binds weakly
chaperonin-60 β (tobacco, plastidial) | binds weakly

The remaining lines, values ahead:

binding | Molecule
binds | NtMKIP1
binds | NtValRS2

Biological target: AtMKIP1-YFP (Arabidopsis thaliana)
Experiment: affinity purification with mass spectrometry; anti-YFP IP (µMACS magnetic beads) from soluble proteins of mature rosettes of P35S:AtMKIP1-YFP Arabidopsis, Col-0 as control; three independent experiments

Molecule | binding
RNC1 (Arabidopsis) (protein, UniProt Q9SZV0 52-537) ASVTAETQGLPRDSPQRLLKELAQRKTATGPKKKVPPKRFILRPPLDDKKLAERFLNSPQLSLKSFPLLSSCLPSSKLNNADKTWIDEYLLEVKQALGYSLEPSESLGDDNPAKHFDTLLYLAFQHPSCDRARARHVKNGHSRLWFLGQYVLELALTEFFLQRYPRESPGPMRERVFALIGKRYLPKWIKAASLQNLIFPYDDMDKLIRKEREPPVKSVFWALFGAIYLCFGMPEVYRVLFEVFGMDPDADECQPRSRRQLEDVDYVSVEFEGKKLGWQDIATYKPPEDALFAHPRLFRACVPPGMHRFRGNIWDFDSKPKVMQTLGYPLTMNDRIKEITEARNIELGLGLQLCFLHPSKHKFEHPRFCFERLEYVGQKIQDIAMAERLLMKHLDAPGKWLQEKHRRLLMNKFCGRYLREKRLHNFIIYSEEVHDRYEHNRRLRNPATTAVQQAIHGLAYTIYGKPDVRRLMFEVFDFEQIQPKAV | no binding
